PubChem BioAssay AID1671195 – Yale University – 2021
Purpose: 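Genes whose knockdown alters LDL uptake in liver cancer cells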 (primary screen). System: human Huh7 hepatoma cells. Reagents: siRNA pool against human genes, 18 nM. Duration: about 2 to 2.5 days of knockdown, then 8 h LDL uptake. Challenge: DiI-labelled LDL at 30 µg/ml for 8 h, in lipoprotein-deficient serum medium. Measured: 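Per-cell DiI-LDL intensity by automated imaging; well means scaled to the plate median and given as a robust z-score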. Direction: robust z-score: higher = more LDL uptake after knockdown. Rule for the call: 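Active when two or more replicates show a robust z-score above 2 or below -2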.
The whole screen tested about 22,000 reagents; below is a random part of them. About 1,510 of them (6.9%) count as active. 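Active includes knockdowns raising or lowering LDL uptake; positive z-scores mean more uptake, negative mean less.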 Reagents against one gene are numbered here. Reagent sequences are not shown.

LOC401256 (retired record) gave robust z-score, replicate 1 = 1.08; robust z-score, replicate 2 = 0.279; robust z-score, replicate 3 = 0.334; inactive.
After knock-down of MADCAM1 (mucosal vascular addressin cell adhesion molecule 1), the record shows robust z-score, replicate 1 = -1.64; robust z-score, replicate 2 = -0.658; robust z-score, replicate 3 = 0.376; inactive.
LOC440998 (retired record) gave robust z-score, replicate 1 = 1.61; robust z-score, replicate 2 = 1.31; robust z-score, replicate 3 = 1.82; inactive.
With knock-down of LHCGR (luteinizing hormone/choriogonadotropin receptor) the results were robust z-score, replicate 1 = -1.25; robust z-score, replicate 2 = -0.889; robust z-score, replicate 3 = -1.52; inactive.
Silencing of TRAPPC3 (trafficking protein particle complex subunit 3) came out at: robust z-score, replicate 1 = 1.03; robust z-score, replicate 2 = 1.79; robust z-score, replicate 3 = 2.82; inactive.
Against CTHRC1 (collagen triple helix repeat containing 1), the entry reads robust z-score, replicate 1 = -1.16; robust z-score, replicate 2 = -0.664; robust z-score, replicate 3 = -1; inactive.

Copied from the entries so far for reference:
TRAPPC3 (trafficking protein particle complex subunit 3) — robust z-score, replicate 1: 1.03; robust z-score, replicate 2: 1.79; robust z-score, replicate 3: 2.82; activity call: inactive
CTHRC1 (collagen triple helix repeat containing 1) — robust z-score, replicate 1: -1.16; robust z-score, replicate 2: -0.664; robust z-score, replicate 3: -1; activity call: inactive

The results go on.
With knock-down of LINC02724 (long independently transcribed non-coding RNA 2724), the screen gave robust z-score, replicate 1 = -2.15; robust z-score, replicate 2 = -2.16; robust z-score, replicate 3 = -2.88; active.
Depletion of ANAPC1P2 (ANAPC1 pseudogene 2) gave: robust z-score, replicate 1 = 0.66; robust z-score, replicate 2 = 0.461; robust z-score, replicate 3 = 0.179; inactive.
ALMS1P1 (ALMS1 pseudogene 1) gave robust z-score, replicate 1 = -0.253; robust z-score, replicate 2 = -0.245; robust z-score, replicate 3 = 0.418; inactive.
For THAP3 (THAP domain containing 3), the entry reads robust z-score, replicate 1 = 0.199; robust z-score, replicate 2 = 0.234; robust z-score, replicate 3 = 0.325; inactive.
After knock-down of YTHDF1 (YTH N6-methyladenosine RNA binding protein F1), the screen gave robust z-score, replicate 1 = -0.786; robust z-score, replicate 2 = -0.358; robust z-score, replicate 3 = 0.0982; inactive.
GUSBP14 (GUSB pseudogene 14) #1 gave robust z-score, replicate 1 = 0.245; robust z-score, replicate 2 = 0.0325; robust z-score, replicate 3 = -0.356; inactive.
Depletion of GUSBP14 (GUSB pseudogene 14) #2 gave: robust z-score, replicate 1 = -0.574; robust z-score, replicate 2 = 0.00898; robust z-score, replicate 3 = -0.131; inactive.
